# Source: the supplement of paper PMC8104966
# Several values for one entry are separate records, joined by “and”; a condition that tells them apart may be missing. Identical values can stand only once. Some of the results follow. Single values are uncertain here, since repeats match poorly.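 Fusion between ACE2-bearing and full-length-spike-bearing U2OS cells was measured by imaging as the percentage of nuclei with both cell types' fluorescent markers. An inhibitory hit is a non-toxic compound whose fusion z-score is below -3, more than three standard deviations beneath the plate's DMSO wells.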
# Test system: U2OS ACE2 x SARS-CoV-2 spike co-culture
# Experiment: cell-cell fusion (fraction fused) z-score vs plate DMSO control; higher = more fusion
# Details: 30 µM; 5 h; toxicity class: non-toxic, passed QC
row,Compound,cell-cell fusion (z-score)
1,Cl.N=C(N)NC(=O)Cc1c(Cl)cccc1Cl [Guanfacine hydrochloride],inactive: 1.03
2,Nc1ccncc1N [Amifampridine],inactive: 1.58
3,COc1cc(C)c(C(=O)O)c(O)c1,inactive: 1.03
4,Nc1ncnc2[nH]cnc12.Nc1ncnc2[nH]cnc12.O=S(=O)(O)O [Adenine sulfate],inactive: 2.25
5,Nc1nc(Cl)nc2c1ncn2[C@@H]1O[C@H](CO)[C@@H](O)[C@@H]1F [Clofarabine],active: -3.19
6,CC(=O)OCC1=C(C(=O)[O-])N2C(=O)[C@@H](NC(=O)CCC[C@@H](N)C(=O)[O-])[C@H]2SC1.[Zn+2] [Cephalosporin C zinc salt],inactive: 2.53
7,"Cl.O=c1cc(N2CCOCC2)oc2c(-c3ccccc3)cccc12 [LY-294,002 hydrochloride]",inactive: 2.03
8,O=C(Nc1nc(-c2cc(Cl)cs2)c(N2CCN(C3CCCCC3)CC2)s1)c1cnc(N2CCC(C(=O)O)CC2)c(Cl)c1 [Avatrombopag],inactive: 0.979
9,CNCCC(Oc1ccccc1OC)c1ccccc1.Cl (stereo not given) [Nisoxetine hydrochloride],inactive: 2.4
10,CN1CCN(c2cccc(Nc3nc4c(-c5ccc(S(C)(=O)=O)cc5)cccn4n3)c2)CC1,inactive: -1.29 and inactive: -0.227
11,COc1cc2c(cc1OC)C1CC(=O)C(CC(C)C)CN1CC2 (stereo not given) [Tetrabenazine],inactive: 1.48
12,C[C@@H]1C[C@H]2[C@@H]3C[C@H](F)C4=CC(=O)C=C[C@]4(C)[C@@]3(F)[C@@H](O)C[C@]2(C)[C@@]1(O)C(=O)CO [Flumethasone],inactive: 3.04
13,NCCS [2-Aminoethanethiol],inactive: 3.59
14,CN(C)CCOC(c1ccccc1)c1ccccc1.Cl [Diphenhydramine hydrochloride],inactive: 2.09
15,CC(Oc1c(Cl)cccc1Cl)C1=NCCN1.Cl (stereo not given),inactive: 2.38
16,Cl.NCCc1ccc(O)c(O)c1 [Dopamine hydrochloride],inactive: 0.174
17,Nc1nccs1,inactive: 2.22
18,C[C@]12CC[C@H](O)CC1=CC[C@@H]1[C@@H]2CC[C@]2(C)C(=O)CC[C@@H]12 [Dehydroepiandrosterone],inactive: 3.13
19,CNCCC=C1c2ccccc2CCc2ccccc21.Cl [Nortriptyline hydrochloride],inactive: 1.45
20,CNCCC=C1c2ccccc2CCc2ccccc21.Cl,inactive: 0.13
21,CC(=O)O[C@H]1C[C@@]2(C)[C@@H](C[C@@H](O)C3[C@]2(C)CC[C@H]2[C@H](C)[C@H](O)CC[C@]32C)/C1=C(/CCC=C(C)C)C(=O)O (stereo not given in full),inactive: 0.916
22,CC(C)Cn1cnc2c(N)nc3ccccc3c21 [Imiquimod],inactive: 1.63
23,COC(=O)N1CCN(C(=O)Cc2ccc(Cl)c(Cl)c2)C(CN2CCCC2)C1.O=C(O)/C=C/C(=O)O (stereo not given),inactive: 1.71

row,Compound,cell-cell fusion (z-score)
1,CC(=O)OCC1=C(C(=O)[O-])N2C(=O)[C@@H](NC(=O)Cc3cccs3)[C@H]2SC1.[Na+],inactive: 1.13
2,CC(=O)OCC1=C(C(=O)[O-])N2C(=O)[C@@H](NC(=O)Cc3cccs3)[C@H]2SC1.[Na+] [Cephalothin sodium],inactive: 2.59
3,NC(=O)c1ccc(-c2nc(-c3ccc4c(c3)OCO4)c(-c3ccccn3)[nH]2)cc1,inactive: 1.49
4,CC(C)(C)c1ccc(C(O)CCCN2CCC(C(O)(c3ccccc3)c3ccccc3)CC2)cc1 (stereo not given),inactive: 2.31
5,CC(C)(C)c1ccc(C(O)CCCN2CCC(C(O)(c3ccccc3)c3ccccc3)CC2)cc1 (stereo not given) [Terfenadine],inactive: 0.399
6,Cc1ccc(C)c(OCCCC(C)(C)C(=O)O)c1,inactive: 0.31
7,CCc1c(C)[nH]c2c1C(=O)C(CN1CCOCC1)CC2.Cl (stereo not given) [Molindone hydrochloride],inactive: 1.5
8,O.O=P1(N(CCCl)CCCl)NCCCO1 (stereo not given) [Cyclophosphamide monohydrate],inactive: 1.57
9,O.O=P1(N(CCCl)CCCl)NCCCO1 (stereo not given),inactive: 1.13
10,O=C1CCc2ccc(OCCCCN3CCN(c4cccc(Cl)c4Cl)CC3)cc2N1,inactive: 0.625
11,CC(=O)O[C@@H]1CC[C@@]2(C)C(C[C@@H](OC(C)=O)[C@@]3(C)C4=CC(=O)O[C@@H](c5ccoc5)[C@]4(C)CCC23)C1(C)C (stereo partly drawn) [3alpha-ACETOXYDIHYDRODEOXYGEDUNIN],inactive: 2.52
12,Cl.NC(=O)c1ccc(OCC(O)CN2CC=C(c3ccc(F)cc3)CC2)cc1 (stereo not given),inactive: 2.29
13,CC(=O)OCC1=C(C(=O)[O-])N2C(=O)[C@@H](NC(=O)CSc3ccncc3)[C@H]2SC1.[Na+] [Cephapirin Sodium],inactive: 1.75
14,C=C(C)C1CC=C(CO)CC1 (stereo not given),inactive: 2.13
15,CC(C)[C@@H]1CC[C@@H](C)CC1=O,inactive: 1.83
16,Br.CN(C)CCCC1(c2ccc(F)cc2)OCc2cc(C#N)ccc21 (stereo not given) [Citalopram HBr],inactive: 2.61
17,CS(=O)(=O)O.O.O=C(O)c1cn(C2CC2)c2cc(N3C[C@@H]4C[C@H]3CN4)c(F)cc2c1=O,inactive: 1.81
18,Cc1nnc(NS(=O)(=O)c2ccc(N)cc2)s1,inactive: 1.11
19,C[C@@](Cc1ccc(O)c(O)c1)(NN)C(=O)O.O [Carbidopa Hydrate],inactive: 1.12
20,CC[C@]1(O)CC2CN(CCc3c([nH]c4ccccc34)[C@@](C(=O)OC)(c3cc4c(cc3OC)N(C)[C@H]3[C@@](O)(C(=O)OC)[C@H](OC(C)=O)[C@]5(CC)C=CCN6CC[C@]43[C@@H]65)C2)C1.O=S(=O)(O)O (stereo not given in full),inactive: 1.04
21,COc1ccc(S(=O)(=O)Nc2cccnc2Nc2ccc(O)cc2)cc1 [ABT-751(Colchicine)],inactive: -1.23
22,O=C1[N-]C(=O)C(c2ccccc2)(c2ccccc2)N1.[Na+] [Phenytoin sodium],inactive: 3.81
